Experiment [1] addresses c-Jun-HA (c-Jun ORF in pCMV-HA vector) (UniProt P05412). Kind of experiment: co-immunoprecipitation, 293 cells cotransfected with myc-Tcl1 T38I and c-Jun-HA (FIG. 2E).
The target of experiment [2] is T1, JunB (expression construct in pCMV-SPORT6 vector, ATCC) (UniProt P17275).
T1 sequence (looked up): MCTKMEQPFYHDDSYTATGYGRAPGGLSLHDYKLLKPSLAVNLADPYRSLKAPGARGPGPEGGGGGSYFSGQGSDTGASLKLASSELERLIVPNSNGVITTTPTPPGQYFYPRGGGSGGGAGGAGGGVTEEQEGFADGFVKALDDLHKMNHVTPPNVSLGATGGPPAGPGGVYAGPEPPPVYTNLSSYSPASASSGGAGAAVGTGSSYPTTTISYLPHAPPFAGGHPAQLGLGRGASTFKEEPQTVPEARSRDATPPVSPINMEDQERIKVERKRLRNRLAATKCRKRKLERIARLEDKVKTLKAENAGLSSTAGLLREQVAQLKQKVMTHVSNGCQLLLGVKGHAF
Kind of experiment: co-immunoprecipitation, 293 cells cotransfected with myc-Tcl1 T38I and JunB (FIG. 2F).

Chains of the proteins cited; added tags and fusions are not shown. Lines headed by an entry give the natural chain unless they say otherwise; changes in a name come on top. Residues count along the entry.
UniProt P05412: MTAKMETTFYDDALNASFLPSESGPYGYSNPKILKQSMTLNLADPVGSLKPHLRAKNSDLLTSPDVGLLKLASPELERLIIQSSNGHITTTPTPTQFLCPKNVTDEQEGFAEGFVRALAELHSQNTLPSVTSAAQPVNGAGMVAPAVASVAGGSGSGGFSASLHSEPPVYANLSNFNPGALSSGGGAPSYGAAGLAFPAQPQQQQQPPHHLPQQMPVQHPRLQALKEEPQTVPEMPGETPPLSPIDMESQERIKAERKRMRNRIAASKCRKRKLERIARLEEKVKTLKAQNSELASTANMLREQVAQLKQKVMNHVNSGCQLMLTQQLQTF
UniProt P01100: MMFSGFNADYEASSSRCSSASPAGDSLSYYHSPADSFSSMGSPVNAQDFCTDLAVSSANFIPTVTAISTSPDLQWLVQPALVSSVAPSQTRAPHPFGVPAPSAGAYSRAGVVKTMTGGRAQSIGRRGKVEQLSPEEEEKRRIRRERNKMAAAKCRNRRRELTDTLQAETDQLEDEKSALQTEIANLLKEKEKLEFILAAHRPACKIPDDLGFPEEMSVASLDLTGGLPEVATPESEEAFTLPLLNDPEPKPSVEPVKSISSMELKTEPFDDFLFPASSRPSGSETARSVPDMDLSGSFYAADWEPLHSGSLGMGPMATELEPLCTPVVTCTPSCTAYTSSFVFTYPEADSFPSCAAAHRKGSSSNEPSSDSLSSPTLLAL
UniProt Q09472: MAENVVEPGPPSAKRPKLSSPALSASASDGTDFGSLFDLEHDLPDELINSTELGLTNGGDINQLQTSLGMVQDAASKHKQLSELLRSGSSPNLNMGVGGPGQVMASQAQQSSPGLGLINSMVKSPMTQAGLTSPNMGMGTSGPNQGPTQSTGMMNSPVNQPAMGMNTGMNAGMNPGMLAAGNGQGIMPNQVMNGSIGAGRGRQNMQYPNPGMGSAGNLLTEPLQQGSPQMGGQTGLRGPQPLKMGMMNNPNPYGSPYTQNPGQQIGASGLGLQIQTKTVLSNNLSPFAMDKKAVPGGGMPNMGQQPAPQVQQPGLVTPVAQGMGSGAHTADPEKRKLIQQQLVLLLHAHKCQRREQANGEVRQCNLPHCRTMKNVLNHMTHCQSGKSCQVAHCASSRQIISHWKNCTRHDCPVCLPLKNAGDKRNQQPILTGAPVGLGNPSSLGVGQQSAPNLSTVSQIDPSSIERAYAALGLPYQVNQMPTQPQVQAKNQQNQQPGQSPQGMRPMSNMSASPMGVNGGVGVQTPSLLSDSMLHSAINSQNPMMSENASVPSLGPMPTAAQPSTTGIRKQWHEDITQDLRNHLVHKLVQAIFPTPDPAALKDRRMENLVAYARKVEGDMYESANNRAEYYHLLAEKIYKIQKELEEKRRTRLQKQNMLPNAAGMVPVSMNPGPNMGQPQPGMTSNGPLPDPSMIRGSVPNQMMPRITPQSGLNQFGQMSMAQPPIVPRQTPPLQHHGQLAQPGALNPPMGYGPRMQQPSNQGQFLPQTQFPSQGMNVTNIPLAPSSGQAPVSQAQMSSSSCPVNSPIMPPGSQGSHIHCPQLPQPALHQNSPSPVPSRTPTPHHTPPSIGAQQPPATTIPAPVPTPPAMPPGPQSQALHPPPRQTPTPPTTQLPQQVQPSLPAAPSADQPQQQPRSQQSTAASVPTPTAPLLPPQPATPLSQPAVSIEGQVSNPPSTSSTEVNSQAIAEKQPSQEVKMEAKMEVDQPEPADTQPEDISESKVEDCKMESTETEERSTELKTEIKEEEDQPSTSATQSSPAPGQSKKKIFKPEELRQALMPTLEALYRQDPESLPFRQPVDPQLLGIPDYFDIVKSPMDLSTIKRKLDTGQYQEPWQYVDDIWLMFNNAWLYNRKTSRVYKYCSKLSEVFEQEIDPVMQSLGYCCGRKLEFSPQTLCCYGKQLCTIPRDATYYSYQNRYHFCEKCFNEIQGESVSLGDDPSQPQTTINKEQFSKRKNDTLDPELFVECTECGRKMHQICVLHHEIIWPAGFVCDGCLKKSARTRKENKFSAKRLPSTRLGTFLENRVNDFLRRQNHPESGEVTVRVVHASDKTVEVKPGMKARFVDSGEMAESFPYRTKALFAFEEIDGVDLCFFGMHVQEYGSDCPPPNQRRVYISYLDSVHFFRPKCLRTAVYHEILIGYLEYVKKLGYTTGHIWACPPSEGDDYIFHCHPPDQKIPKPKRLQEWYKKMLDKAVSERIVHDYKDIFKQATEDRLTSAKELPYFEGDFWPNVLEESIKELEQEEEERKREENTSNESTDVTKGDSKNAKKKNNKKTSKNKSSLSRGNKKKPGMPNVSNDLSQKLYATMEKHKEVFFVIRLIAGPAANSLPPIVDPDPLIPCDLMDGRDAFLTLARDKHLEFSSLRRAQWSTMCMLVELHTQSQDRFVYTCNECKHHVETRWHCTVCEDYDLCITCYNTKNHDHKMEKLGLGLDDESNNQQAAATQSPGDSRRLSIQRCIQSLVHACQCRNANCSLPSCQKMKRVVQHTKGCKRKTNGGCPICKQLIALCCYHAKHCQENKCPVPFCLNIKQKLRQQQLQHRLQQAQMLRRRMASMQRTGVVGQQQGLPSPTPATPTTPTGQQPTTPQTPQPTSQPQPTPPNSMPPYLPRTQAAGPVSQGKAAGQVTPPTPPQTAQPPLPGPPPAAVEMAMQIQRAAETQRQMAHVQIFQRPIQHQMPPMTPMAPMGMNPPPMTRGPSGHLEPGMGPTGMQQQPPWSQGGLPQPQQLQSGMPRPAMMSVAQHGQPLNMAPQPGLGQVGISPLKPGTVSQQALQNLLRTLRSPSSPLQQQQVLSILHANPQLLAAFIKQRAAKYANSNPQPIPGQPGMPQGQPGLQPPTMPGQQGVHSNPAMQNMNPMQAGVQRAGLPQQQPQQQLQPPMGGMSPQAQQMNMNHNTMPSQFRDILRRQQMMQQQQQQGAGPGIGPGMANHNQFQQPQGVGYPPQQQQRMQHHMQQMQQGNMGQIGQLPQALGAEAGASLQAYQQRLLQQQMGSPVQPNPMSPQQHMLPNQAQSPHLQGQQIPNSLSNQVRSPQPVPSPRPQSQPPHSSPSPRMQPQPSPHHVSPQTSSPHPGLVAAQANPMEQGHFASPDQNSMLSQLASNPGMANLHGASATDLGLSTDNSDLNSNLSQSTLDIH
endogenous p300 of Daudi Burkitt lymphoma cells: residues 2-2414 of Q09472
UniProt P56279: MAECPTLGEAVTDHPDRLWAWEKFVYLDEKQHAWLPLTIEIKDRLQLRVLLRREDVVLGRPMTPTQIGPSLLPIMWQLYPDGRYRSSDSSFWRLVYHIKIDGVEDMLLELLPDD

The target of experiment [3] is c-Fos-V5 (construct bought from Invitrogen) (UniProt P01100). Kind of experiment: co-immunoprecipitation, 293 cells cotransfected with myc-Tcl1 T38I and c-Fos-V5 (FIG. 2D).
Experiment [4] deals with p300-HA (construct bought from Upstate Biotechnology) (UniProt Q09472). Put plainly: co-immunoprecipitation, 293 cells cotransfected with p300-HA and Omni-Tcl1 (FIG. 1C upper, legend).
Experiment [5] addresses c-Fos-V5 (construct bought from Invitrogen) (UniProt P01100). Put plainly: immunofluorescence colocalization, 293 cells cotransfected with c-Jun-HA, c-Fos-V5 and Omni-Tcl1 (FIG. 3; yellow = c-Fos and Tcl1).
Experiment [6] concerns the target p300-HA (construct bought from Upstate Biotechnology) (UniProt Q09472). Put plainly: co-immunoprecipitation, 293 cells cotransfected with p300-HA and Omni-Tcl1 (FIG. 1C upper).
Experiment [7] deals with c-Fos-V5 (construct bought from Invitrogen) (UniProt P01100). Kind of experiment: co-immunoprecipitation, 293 cells cotransfected with c-Fos-V5 and CMV5-Tcl1 WT (FIG. 2C).
The target of experiment [8] is p300-HA (construct bought from Upstate Biotechnology) (UniProt Q09472). Put plainly: co-immunoprecipitation (data not shown).
In experiment [9] the target is endogenous c-Jun (293 cells and Daudi cells, induced with PMA and ionomycin) (UniProt P05412). Kind of experiment: co-immunoprecipitation, 293 cells transfected with myc-Tcl1, treated with PMA and ionomycin (FIG. 2G).
The target in experiment [10] is c-Fos-V5 (construct bought from Invitrogen) (UniProt P01100). Put plainly: co-immunoprecipitation, 293 cells cotransfected with c-Fos-V5 and CMV5-Tcl1 T38I (FIG. 2C).
Experiment [11] concerns the target endogenous c-Jun (293 cells and Daudi cells, induced with PMA and ionomycin) (UniProt P05412). Kind of experiment: co-immunoprecipitation of endogenous proteins, Daudi cells treated with PMA and ionomycin (FIG. 2H).
For experiment [12], the target named is endogenous p300 of Daudi Burkitt lymphoma cells (UniProt Q09472). Kind of experiment: co-immunoprecipitation of endogenous proteins, Daudi cells (FIG. 1C lower, legend).
The target is the same in experiment [13]. Kind of experiment: co-immunoprecipitation of endogenous proteins, Daudi cells (FIG. 1C lower).

Results are given in words; binding and its absence hold for the method and conditions named. For some of these results: In cells and extracts the contact can be indirect. Some entries that bind do so weakly or less than the wild type.

Take “2×Myc-Tcl1 T38I (from UniProt P56279 1-114)”: the binding result in [1], in experiment [2] and in [3] was “binds” in each case.
Regarding “Omni-Tcl1 (full-length human TCL1 ORF in pcDNA4-HisMaxC) (from UniProt P56279 1-114)”, the binding entry in experiment [4], in [5] and in experiment [6] was “binds” throughout.
Consider “Tcl1 WT (pCMV5-TCL1 WT construct, full-length human TCL1 ORF) (from UniProt P56279 1-114)”, for which the binding result in [7] is “binds”.
“Tcl1 T38I mutant, construct not stated (from UniProt P56279 1-114)”: the binding entry in experiment [8] is on record as “binds”.
For “2×Myc-Tcl1 WT (from UniProt P56279 1-114)”, the binding entry in [9] is “binds”.
For the substance “Tcl1 T38I (pCMV5-TCL1 T38I construct) (from UniProt P56279 1-114)”, the binding result in experiment [10] was “binds”.
Regarding “endogenous Tcl1 of Daudi Burkitt lymphoma cells (from UniProt P56279 1-114)”, the binding entry in experiment [11], in experiment [12] and in [13] was “binds” each time.

The values are drawn from patent US20110311555A1.
